In PubChem BioAssay AID248 (DTP/NCI, 2004) one finds survivor count and T/C data, which are given here for 28 molecules.

The subject of the assay is L1210 leukemia ip in BDF1 mice, survival T/C. In words: NCI In Vivo Anticancer Drug Screen. Data for tumor model L1210 Leukemia (intraperitoneal) in B6D2F1 (BDF1) mice. As to conditions: T/C endpoint: mean survival time, higher T/C = longer survival.
[1] abbreviates: dose: 100.0 mg/kg/injection, schedule: Q04DX002 (ip), vehicle: saline with Tween-80.
Setting [2] is: dose: 50.0 mg/kg/injection, schedule: Q04DX002 (ip), vehicle: saline with Tween-80.
Where [3] appears, read: dose: 200.0 mg/kg/injection, schedule: Q01DX009 (ip), vehicle: saline with Tween-80.
Setting [4] is: dose: 400.0 mg/kg/injection, schedule: Q01DX009 (ip), vehicle: saline with Tween-80.
Where [5] appears, read: dose: 400.0 mg/kg/injection, schedule: Q01DX009 (ip), vehicle: Klucel (hydroxypropylcellulose) (HPC).
Where [6] appears, read: dose: 100.0 mg/kg/injection, schedule: Q04DX003 (ip), vehicle: Klucel (hydroxypropylcellulose) (HPC).
Setting [7] is: dose: 200.0 mg/kg/injection, schedule: Q04DX003 (ip), vehicle: Klucel (hydroxypropylcellulose) (HPC).
Setting [8] is: dose: 100.0 mg/kg/injection, schedule: Q01DX001 (ip), vehicle: Klucel (hydroxypropylcellulose) (HPC).
[9] abbreviates: dose: 400.0 mg/kg/injection, schedule: Q01DX001 (ip), vehicle: saline.
[10] abbreviates: dose: 400.0 mg/kg/injection, schedule: Q01DX009 (ip), vehicle: saline.
Setting [11] is: dose: 400.0 mg/kg/injection, schedule: Q04DX003 (ip), vehicle: Klucel (hydroxypropylcellulose) (HPC).

Each structure is given as a SMILES string. The list does not hold the whole screen: it gathers tests that were run many times, whatever their T/C, doses with no T/C, and many T/C values between a quarter and a half above the control. Other doses and runs of a compound stand elsewhere. T/C is the treated group as % of the vehicle group. Some doses have a count of surviving animals in place of a T/C: the source files T/C as zero there, which appears to mark a toxic dose or a test without result, not a measured value. Some doses without a T/C left all or most animals alive at the check, yet need not have been tolerated: the source hardly ever lists a survival T/C far under the control, and the zero likely stands for such cases as well. Counts of survivors are from the toxicity check (mostly the fifth day) where no day follows; animals may have died later. Schedules are NCI's codes, taken here to give the interval after Q, in days (D) or hours (H), and the number of doses after X. Some entries were tested several times; their values stand side by side, smallest first. Some molecules as drawn cover several salts, stereoisomers or complexes of the source; a dose is that of the sample tested. Additions like (4×) count equal records among those shown. Where survival is the endpoint, this PubChem deposit counts one and a half times the control or more as active, and values a quarter to a half above the control carry no call in these data; other NCI protocols may use other cut-offs.

Take `C=CCNc1ccc([N+](=O)[O-])cc1[N+](=O)[O-]`: for the setting “dose: 400.0 mg/kg/injection, schedule: Q01DX001 (ip), vehicle: steroid suspending solution”, the survivor count is 3 of 6.

Consider `CC(C)(C)C(=O)C(C)(C)C`, for which the survivor count (dose: 400.0 mg/kg/injection, schedule: Q01DX001 (ip), vehicle: carboxymethylcellulose (CMC)) is recorded as 2 of 4.

Regarding `CC(=O)NC1CCC(/C=C(\C#N)C2CCC([N+](=O)[O-])CC2)CC1` (stereo not given), the survivor count under setting [1] was 3 of 3.

`CC1=C(CCCO)/C(=N/Nc2ccc([N+](=O)[O-])cc2[N+](=O)[O-])CCC1`: the survivor count reads like this: under setting [2], 3 of 3; under setting [1], 3 of 3.

Take `O=C(Nn1cn[nH]c1=S)Oc1ccccc1`: for the setting “dose: 400.0 mg/kg/injection, schedule: Q04DX003 (ip), vehicle: saline with Tween-80”, the survivor count is 2 of 6.

In the case of `Cc1ccc(S(=O)(=O)C2CCCCC2SC#N)cc1` (stereo not given), the survivor count (dose: 100.0 mg/kg/injection, schedule: Q01DX009 (ip), vehicle: saline with Tween-80) is 3 of 6; the survivor count under setting [3] is recorded as 2 of 6; the survivor count under setting [4] was 0 of 6.

On to `CCC[N+](C)(C)C1CCCCC1`, for which the survivor count is, setting by setting: (dose: 150.0 mg/kg/injection, schedule: Q01DX001 (ip), vehicle: saline) 0 of 6 and 2 of 6; (dose: 300.0 mg/kg/injection, schedule: Q01DX001 (ip), vehicle: saline) 0 of 6 (2×).

Take `O=C(O)CSc1nc2ccccc2s1`: the survivor count under setting [3] is 3 of 6 and the survivor count under setting [4] was 6 of 6.

For the molecule `[Se]=P(c1ccccc1)(c1ccccc1)c1ccccc1`, the survivor count under setting [5] is 0 of 6.

Regarding `COc1cc2c(cc1OC)/C(=N/N)CCC2`, the survivor count by setting is: under setting [6], 2 of 6; under setting [7], 0 of 6.

Consider `Clc1cccc(Cl)c1C[N+]12CN3CN(CN(C3)C1)C2`, for which the survivor count (dose: 240.0 mg/kg/injection, schedule: Q01DX015 (ip), vehicle: saline) is 1 of 6.

As to `Cc1nc(N)[nH]c(=O)c1CCCNC(=O)c1ccc(C(=O)CBr)cc1`, the survivor count under setting [8] is 6 of 6.

Regarding `COCCOC(=O)c1ccc(C(=N)N)cc1`, the survivor count under setting [9] is reported as 0 of 6.

`COc1cc2cc(C)[nH]c2cc1OC`: under setting [9], the survivor count is 0 of 4.

Take `CC(=O)OCc1ccc(Cl)cc1`: the survivor count under setting [10] is given as 3 of 6.

As for `Cc1ccc(/C=C/c2ccccn2)cc1`, the survivor count (dose: 400.0 mg/kg/injection, schedule: Q01DX009 (ip), vehicle: carboxymethylcellulose (CMC)) was 1 of 3 and 3 of 6.

Take `CCCC[CH2][Sn](=[O])[CH2]CCCC`: the survivor count was 4 of 6 (dose: 100.0 mg/kg/injection, schedule: Q04DX003 (ip), vehicle: saline); 0 of 6 (dose: 200.0 mg/kg/injection, schedule: Q04DX003 (ip), vehicle: saline); 0 of 6 (dose: 400.0 mg/kg/injection, schedule: Q04DX003 (ip), vehicle: saline).

Turning to `C=C(Br)CNC(=O)C1CCCCC1`, the survivor count runs as follows: under setting [6], 5 of 6; under setting [7], 0 of 6; under setting [11], 0 of 6.

For `CC(C)[S][Pb]([c]1ccccc1)([c]1ccccc1)[c]1ccccc1`, the survivor count was 3 of 3 (dose: 25.0 mg/kg/injection, schedule: Q04DX002 (ip), vehicle: gum acacia); 3 of 3 (dose: 50.0 mg/kg/injection, schedule: Q04DX002 (ip), vehicle: gum acacia); 1 of 3 and 3 of 3 (dose: 100.0 mg/kg/injection, schedule: Q04DX002 (ip), vehicle: gum acacia); 0 of 3 (dose: 200.0 mg/kg/injection, schedule: Q04DX002 (ip), vehicle: gum acacia); 0 of 3 (dose: 400.0 mg/kg/injection, schedule: Q04DX002 (ip), vehicle: gum acacia).

`COc1ccc(CC2Cc3cc(OC)c(OC)cc3C=N2)cc1OC` (stereo not given): the survivor count under setting [10] is 2 of 6.

With `O=c1c(Cl)c(C(Cl)(Cl)Cl)c2ccccc2n1O`, under setting [11], the survivor count is on record as 3 of 3.

`CS(=O)(=O)OCCN(CCOS(C)(=O)=O)c1ccc(C=Nc2cccc(Cl)c2)cc1`: the T/C reads like this: (dose: 2.5 mg/kg/injection, schedule: Q04DX003 (ip), vehicle: Klucel (hydroxypropylcellulose) (HPC)) 127 % of control; (dose: 10.0 mg/kg/injection, schedule: Q04DX003 (ip), vehicle: Klucel (hydroxypropylcellulose) (HPC)) 132 % of control; (dose: 20.0 mg/kg/injection, schedule: Q04DX003 (ip), vehicle: Klucel (hydroxypropylcellulose) (HPC)) 129 and 136 % of control. Besides, the survivor count was 6 of 6 (dose: 80.0 mg/kg/injection, schedule: Q04DX003 (ip), vehicle: Klucel (hydroxypropylcellulose) (HPC)); 5 of 6 under setting [6]; 4 of 6 under setting [7]; 4 of 6 under setting [11].

As to `N#CSCC(CCCCCCCCC(=O)O)SC#N` (stereo not given), the survivor count under setting [2] is reported as 0 of 3.

Regarding `CC1(C)c2ccccc2C(C)(C)[N+]1(C)C`, the survivor count reads like this: (dose: 200.0 mg/kg/injection, schedule: Q01DX001 (ip), vehicle: other) 3 of 6; (dose: 400.0 mg/kg/injection, schedule: Q01DX001 (ip), vehicle: other) 0 of 6.

Turning to `N#CC(C#N)=Cc1c(Cl)cccc1Cl`, the survivor count reads like this: (dose: 50.0 mg/kg/injection, schedule: Q01DX001 (ip), vehicle: Klucel (hydroxypropylcellulose) (HPC)) 2 of 6; under setting [8], 0 of 6; (dose: 200.0 mg/kg/injection, schedule: Q01DX001 (ip), vehicle: Klucel (hydroxypropylcellulose) (HPC)) 1 of 6; (dose: 400.0 mg/kg/injection, schedule: Q01DX001 (ip), vehicle: Klucel (hydroxypropylcellulose) (HPC)) 0 of 6.

In the case of `CCCCCCCCCCCC(=O)Nc1ccccc1`, the survivor count is recorded as 6 of 6 (dose: 100.0 mg/kg/injection, schedule: Q01DX009 (ip), vehicle: saline); 4 of 6 (dose: 200.0 mg/kg/injection, schedule: Q01DX009 (ip), vehicle: saline); 6 of 6 under setting [10].

`CC(=O)Nc1ccc(OC(=O)Nc2cc(C)ccc2C)cc1`: the survivor count is, setting by setting: (dose: 100.0 mg/kg/injection, schedule: Q01DX009 (ip), vehicle: Klucel (hydroxypropylcellulose) (HPC)) 5 of 6; under setting [5], 4 of 6.

Regarding `CC[N+](C)(CC)CCN1c2ccccc2Sc2ccccc21`, for the setting “dose: 12.5 mg/kg/injection, schedule: Q04DX003 (ip), vehicle: saline”, the survivor count was 6 of 6.
